Data reported in publication PMC7793965.
Results are given in words; binding and its absence hold for the method and conditions named. In cells and extracts the contact can be indirect. Some binding calls cover weakened binding; strength is not graded here.

By UniProt entry, the sequences of proteins in these tests, tags left out.
UniProt Q9CUN6: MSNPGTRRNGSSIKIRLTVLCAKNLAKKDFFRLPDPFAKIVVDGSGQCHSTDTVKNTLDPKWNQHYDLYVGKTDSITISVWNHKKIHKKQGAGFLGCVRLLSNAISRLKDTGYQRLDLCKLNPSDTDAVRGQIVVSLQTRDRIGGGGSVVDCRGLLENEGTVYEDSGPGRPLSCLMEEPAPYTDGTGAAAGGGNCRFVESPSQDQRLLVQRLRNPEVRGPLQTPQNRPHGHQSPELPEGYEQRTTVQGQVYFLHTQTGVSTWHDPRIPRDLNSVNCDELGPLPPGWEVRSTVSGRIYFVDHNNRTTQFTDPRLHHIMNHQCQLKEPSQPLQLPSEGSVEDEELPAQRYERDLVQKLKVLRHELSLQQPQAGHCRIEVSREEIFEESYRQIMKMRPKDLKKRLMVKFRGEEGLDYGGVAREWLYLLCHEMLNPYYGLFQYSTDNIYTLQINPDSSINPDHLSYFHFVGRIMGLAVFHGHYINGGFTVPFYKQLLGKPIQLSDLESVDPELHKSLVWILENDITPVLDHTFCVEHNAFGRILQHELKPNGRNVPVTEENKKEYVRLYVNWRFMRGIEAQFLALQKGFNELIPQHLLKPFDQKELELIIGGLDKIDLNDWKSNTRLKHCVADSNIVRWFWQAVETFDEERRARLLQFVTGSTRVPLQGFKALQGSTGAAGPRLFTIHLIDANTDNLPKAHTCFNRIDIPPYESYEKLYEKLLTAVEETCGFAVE
UniProt Q08775: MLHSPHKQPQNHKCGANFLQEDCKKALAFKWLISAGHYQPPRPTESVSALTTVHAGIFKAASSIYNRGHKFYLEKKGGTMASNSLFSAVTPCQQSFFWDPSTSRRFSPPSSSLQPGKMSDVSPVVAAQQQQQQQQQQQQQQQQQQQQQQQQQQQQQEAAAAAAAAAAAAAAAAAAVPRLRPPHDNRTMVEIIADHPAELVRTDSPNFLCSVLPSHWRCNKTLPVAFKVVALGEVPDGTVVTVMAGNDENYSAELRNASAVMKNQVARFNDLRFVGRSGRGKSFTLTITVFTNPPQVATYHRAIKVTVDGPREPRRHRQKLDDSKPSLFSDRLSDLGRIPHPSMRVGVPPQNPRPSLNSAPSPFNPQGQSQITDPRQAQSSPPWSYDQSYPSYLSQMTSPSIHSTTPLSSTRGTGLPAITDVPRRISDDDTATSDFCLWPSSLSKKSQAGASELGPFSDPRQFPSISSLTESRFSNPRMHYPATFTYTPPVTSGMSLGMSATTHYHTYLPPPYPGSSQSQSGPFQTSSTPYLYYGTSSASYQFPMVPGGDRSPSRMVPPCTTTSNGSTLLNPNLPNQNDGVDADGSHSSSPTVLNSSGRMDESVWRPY

Biological target: FLAG-labeled SMURF1 (Smad ubiquitination regulatory factor-1) (UniProt Q9CUN6)
Test: co-IP; MC3T3-E1C cells transfected with FLAG-labeled SMURF1 and HA-labeled Runx2, 24 h after transfection; anti-FLAG or anti-Myc-conjugated agarose (30 μl/sample); precipitates probed with antibodies against Myc and HA tags

HA-labeled Runx2 (Runt-related transcription factor 2) (from UniProt Q08775 1-607)
binding: binds
